# Measurements taken from the supplement of paper PMC12764529.
# ± gives the half width of the 95% confidence interval. The two proteases of the assay disagree for many of these sequences.
# Experiments:
# [1] = folding stability dG unfold (combined trypsin and chymotrypsin); higher = more stable
# Experimental: (§1)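 Folding stability of de novo designed mini-proteins (<80 aa, no Cys; designed by TrROS, TrMRF, ProteinMPNN and the joint model) was measured by cDNA display proteolysis with trypsin and chymotrypsin. Each protease was used at 11 concentrations in a threefold dilution series plus a no-protease condition. K50 was inferred by Bayesian fitting of sequencing counts, and dG unfold was derived against a sequence-predicted unfolded-state K50 (Tsuboyama et al. method). Sequences shown include variable-length N-terminal GS-type padding (SAGGSAGG...) inside a display construct carrying a PA tag. Rows were kept only if the AF2 dimer inter-PAE was >15, to exclude likely homo-oligomers.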
# [2] = folding stability dG unfold from chymotrypsin proteolysis; higher = more stable
# Experimental: as §1
Sequence,folding stability dG unfold [1] [kcal/mol],folding stability dG unfold [2] [kcal/mol]
SAGGPGFQRYPYTLELPDGRKITVEYWRMGDNPYVQIDIRHDGEPLGTIHVPVPSPDQIEDAAKDIISAGGS [r16_55_TrROS],1.58 ± 0.072,1.78 ± 0.054
SAGGSAGGSAGGMYSVTLTPVSSPDGELRLRAVYPELGLVRDFDPATGRPVRVVPAALLSAGGSAGGSAGGS [r10_589_JUSTAS],-0.422 ± 0.26,0.411 ± 0.22
SAGGSAGGSAGMSRISVEPGPGRVTVTTEVETEEIVPGTGTPKLRRSTTVTVLPAGELAPSAGGSAGGSAGG [r17_51_JUSTAS],0.646 ± 0.059,1.12 ± 0.045
SAGGSAGGSAGLLPYPVTDVSVEELPDGLVRVTITLPNGEPLPLVVSPDDPVVQDLLDALSAGGSAGGSAGG [r11_122_TrMRF],1.37 ± 0.13,1.85 ± 0.11
SMSEVVEESEFNGEKVITIKVTLPDGTPVTVTITLSPEGEGTVTTVPPSSSTSTTTTVPVSQVDEVLEALSA [r9_91_JUSTAS],1.61 ± 0.074,1.4 ± 0.031
SAGMPPVVVVEVPFRVTHHADPGTVTVEARFLLEDEEFTATFTLPAPPALAALPPGATVDVPALAVLLDSAG [r5_714_TrMRF],2.63 ± 0.12,3.19 ± 0.051
SAGGSDKEEKEKEIDIRIVQVPWDDARELAEESDDPVIFMLPDGHIHIFKGDGKVEPFPIPDPEEFSAGGSA [r2_34_TrROS],0.0224 ± 0.12,0.199 ± 0.15
SAGGSAGGSAGMVVETEVLETTPPGRTVRTRTTTREKTPDNAPVTTESESVTEVPSPPLESAGGSAGGSAGG [r11_689_JUSTAS],0.273 ± 0.081,0.615 ± 0.026
SSPVVVSESTDPNSSTKTITVTLPPNARVTLTLPGEPVETRPQPDATATLTTGPDALDITIEPLPPGVPLSA [r9_221_JUSTAS],-0.714 ± 0.24,0.474 ± 0.1
SAGGSAGGSAGGKKIIKVNLRIYDPVNPKVTVLPIEAPFDEIIKIAKEIAAPDQVVEISSAGGSAGGSAGGS [r10_397_TrMRF],-0.654 ± 0.16,-0.506 ± 0.097
SAGGMSSTETRVLETEPGASPDGSSLVKSEVTFTEGDSPVYTELYETEVTYLPDGTVETKTSRTVVPSAGGS [r8_170_JUSTAS],0.553 ± 0.061,1.06 ± 0.043
SAGGKKIEIKEGDTVKLKNATITLNGKTFKIKDAEAKVVKVDKKKKKVIIEITLKNGKKETFVFDIKSAGGS [r8_215_TrROS_Hall],3.15 ± 0.16,3.331 ± 0.026
SMIPPGAELELEFEIEGEGDEPLRIRLRLRFDPGPDGKARVRLELELEGPDGPVLRLPFEFELDIPPDALSA [r9_86_TrMRF],3.5 ± 0.059,3.85 ± 0.042
SAMTTTETFEEGDYVYTVITTKIPSSLPPDSVVTIPVTTPLGAESEVVSEPGGTITVKVRLKKEDPELLSAG [r14_754_JUSTAS],-0.176 ± 0.13,0.14 ± 0.088
SAGGSAGGMTAADLAAALAGPVPPLRVVEVAIPVHPDETLEEALELARRLGEELGADVVILHVASAGGSAGG [r6_516_TrMRF],0.774 ± 0.12,1.51 ± 0.068
SAGGSVLVTLTNPADGTPVTLPTPAEEAEAILASGDTAALEARHPGRPVAAVTVDPVSPRPPVPPGLASAGG [r13_629_JUSTAS],-0.651 ± 0.38,0.223 ± 0.095

# Taken from above:
# In folding stability dG unfold [1] [kcal/mol], SAGGSAGGSAGGMYSVTLTPVSSPDGELRLRAVYPELGLVRDFDPATGRPVRVVPAALLSAGGSAGGSAGGS [r10_589_JUSTAS] shows -0.422 ± 0.26
# In folding stability dG unfold [1] [kcal/mol], SAGMPPVVVVEVPFRVTHHADPGTVTVEARFLLEDEEFTATFTLPAPPALAALPPGATVDVPALAVLLDSAG [r5_714_TrMRF] shows 2.63 ± 0.12

# More results

Sequence,folding stability dG unfold [1] [kcal/mol],folding stability dG unfold [2] [kcal/mol]
SAGGSAGGSASSMVTVTVSVSPDEGDEEVAKEIAKELGRPDAKVTKITYDPATGTLTITLVDSAGGSAGGSA [r18_481_JUSTAS],1.58 ± 0.11,1.53 ± 0.062
SAGGEIKIEVEKTEDTIKVKIVNKKTGKVEEREFKPGEKLEELPEGAEPKKIEIVNKNGEKIEIELPSAGGS [r8_487_TrROS_Hall],0.561 ± 0.094,1.11 ± 0.065
SAGGSAGGKVVLDPARREVLLQLPDGRWVRGKLVRAEAIPPTGRAVLEVVFELDGVEVPATIEFSAGGSAGG [r6_962_TrMRF],2.67 ± 0.027,3.065 ± 0.017
SAGGSAGGSAGGPASPTVTTVPLPDGSTATRTTTDELTTVTVPNGPTLTYNPSPPVLAGSAGGSAGGSAGGS [r10_1176_JUSTAS],0.584 ± 0.05,1.15 ± 0.018
SAGGMLVLDLGDDVFVAEIRTERRVERDPEHPDRFRVETRPRIRVRPVRRPDVLPLPPVGLDDPRFLSAGGS [r16_395_TrMRF],0.538 ± 0.18,1.13 ± 0.16
SAGGSAGGSAGGSGPEELARELARLLPPGARVEVRVRRLPETDRLVVEVRVYSPEELERSAGGSAGGSAGGS [r4_350_TrROS_Hall],1.12 ± 0.044,1.63 ± 0.041
SAGGSSNKYLVTVTVSTPGKEITLNFEVESEEEAEELVREAIKEKYPENLDEITIEITITPTSDPESAGGSA [r2_111_JUSTAS],3.44 ± 0.24,2.94 ± 0.17
SAGGSAGGSAGGPPEILDVLRAADVPVVRVEVFEVPLPGTTAPALLVLAGNPDGRYLVLGSAGGSAGGSAGG [r7_337_TrMRF],0.424 ± 0.22,1.04 ± 0.18
SAGGSAGGSATLAVRDPSTDAVLVYDPVTGALLLRFPDGLVAYDPRTGERRLFPAGTTITLPASAGGSAGGS [r12_584_TrMRF],0.871 ± 0.081,1.5 ± 0.14
SAGGSAGGSAGAPKSVSVPLLRPDGKPVLVTQTDDRVFVYDLGPDRWATFPAKDVPPGVASAGGSAGGSAGG [r11_155_TrMRF],0.335 ± 0.13,1.23 ± 0.18
SAGGSAGGSAGGSGMGVKATFEINFWALNPDGNLMPMNITVEVEVPVPPPPPPKDPDGKSAGGSAGGSAGGS [r4_325_TrROS],2.43 ± 0.17,2.91 ± 0.051
SAGGSAGGSAGMITIERIPGSGKLVITITDPGSGKVLTIPFDNADPKEALAKAKELLKKLSAGGSAGGSAGG [r17_386_JUSTAS],3.25 ± 0.075,3.19 ± 0.048
SAGGSAMKKEITIKAPGLSIEEIKELLKKLGITPLKYDENTGTITILATESDIKKIESLLNYTVISSAGGSA [r15_731_JUSTAS],4.15 ± 0.23,3.63 ± 0.16
SAGGSAGGSAGGAMTLEELIAAVPPTRPDVTVEAEFPEKPVKVTITRPPDGTVEVEVKKVSAGGSAGGSAGG [r7_984_JUSTAS],1.25 ± 0.17,1.75 ± 0.1
SAGGSAGGSAGGAADGPEKVVTVPVRFTFTLPDGDEVEVRGVATFYEDGPITFELKEVYPSAGGSAGGSAGG [r7_694_TrMRF],3.15 ± 0.16,3.6 ± 0.046
SAGGSAGGMREKIEKAVATGEGGPLVVPVPSPEEEEEVRRIKEEFPEVEVKAVPPEEMPPDYARSAGGSAGG [r6_87_JUSTAS],0.488 ± 0.18,1.09 ± 0.054
